Data taken from PubChem BioAssay AID1224904, deposited by Broad Institute (2016).

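293T-iDUX4 cells carrying a ZSCAN4-driven Gaussia luciferase and a tet-on Italica luciferase control; the gap between the two luminescence signals is read after 24 h.
The test concentration is not given here.
Percent difference between the Gaussia and Italica channels; more negative values mean more selective suppression of the DUX4 reporter, and higher values mean less activity.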

Values are in %.
The controls that fix the scale are not given here.
Common to all entries: measured here: selective DUX4 reporter inhibition.
This is a side read-out of the assay, for part of the compounds, not drawn at random.

SMILES	Gaussia minus Italica difference (%)
N#C[C@@H]1[C@H](c2ccccc2C2=CCCCC2)[C@@H](CO)N1C(=O)Cc1ccncc1	-15.11
Cc1ccccc1S(=O)(=O)N1CC[C@@H]2[C@@H](CO)N(C)c3ccc(-c4cccc(F)c4)cc3[C@@H]21	-10.68
COc1ccc2c3c([nH]c2c1)[C@@H](CO)N(C(=O)Nc1ccc(F)cc1)CC31CN(Cc2ccccc2OC)C1	3.8
O=C(C[C@H]1CC[C@@H]2[C@H](COC[C@@H](O)CN2Cc2cccc(C(F)(F)F)c2)O1)NCCc1ccccc1	-3.327
C[C@@H](NC(=O)C[C@H]1C[C@@H]2c3cc(NC(=O)c4ccc5c(c4)OCO5)ccc3O[C@@H]2[C@@H](CO)O1)c1ccccc1	-5.282
OC[C@H]1[C@H](c2ccc(C#CC3CCCC3)cc2)[C@@H]2CN(CCC(F)(F)F)CCCCN12	-7.507
COc1ccc(NC(=O)N2CCCCN3[C@@H](CO)[C@@H](c4ccc(-c5ccccc5F)cc4)[C@@H]3C2)cc1	0.1795
COc1ccc(NC(=O)N2CCCCN3[C@@H](CO)[C@H](c4ccc(C5=CCCCC5)cc4)[C@@H]3C2)cc1	9.584
C[C@H](CO)N1C[C@H](C)[C@H](CN(C)C(=O)Nc2cccc(C(F)(F)F)c2)OCc2ccccc2-c2c(n(C)c3ccccc23)C1=O	2.936
CCS(=O)(=O)N1CC(=O)N2[C@H](C1)[C@@H](c1ccc(C#Cc3ccc(F)cc3)cc1)[C@@H]2CO	28.04
N#C[C@H]1[C@H](c2ccccc2C2=CCCCC2)[C@H](CO)N1C(=O)NC1CCCC1	1.443
C[C@@H]1CN([C@@H](C)CO)C(=O)c2c(c3ccccc3n2C)-c2ccccc2CO[C@H]1CN(C)Cc1cccc(C(=O)Nc2ccccc2N)c1	-8.224
CO[C@H]1CN(C)C(=O)c2cc(NC(=O)c3ccc(Oc4ccccc4)cc3)ccc2OC[C@@H](C)NC[C@@H]1C	34.64
N#Cc1ccc(-c2ccc(C3[C@@H]4CN(S(=O)(=O)c5ccc(F)cc5)C[C@H]3N4)cc2)cc1 (some centres unmarked)	37.56
O=C(C[C@@H]1CC[C@H]2[C@@H](COC[C@H](O)CN2Cc2nccs2)O1)NCc1ccc(Oc2ccccc2)cc1	-5.978
COc1ccc2c3c(n(C)c2c1)[C@@H](CO)N(Cc1cccc(Cl)c1)CC31CN(C(=O)C2CC2)C1	-22.53
O=C(C[C@H]1CC[C@H]2[C@@H](COC[C@@H](O)CN2Cc2cccc(Cl)c2)O1)NCC1CCCCC1	-7.869
O=S(=O)(c1ccc(F)cc1)N1CC[C@@H]2[C@H](CO)Nc3ccc(-c4ccc(F)cc4)cc3[C@@H]21	11.25
O=C(C1CCC1)N1CC2(C1)[C@H](c1ccccc1)[C@H](CO)N2CC1CCCC1	-13.25
C[C@H](CO)N1C[C@H](C)[C@H](CN(C)C(=O)Nc2cccc(C(F)(F)F)c2)OCc2ccccc2-c2ccccc2C1=O	1.002
O=C(CC1CC1)N1[C@H](CO)[C@H](c2ccccc2)C12CN(Cc1cc(F)ccc1F)C2	-10.76
O=C(c1cccc(F)c1)N1CCCCN2[C@H](CO)[C@@H](c3ccc(-c4ccccc4)cc3)[C@@H]2C1	-16.19
COc1ccc2c3c(n(C)c2c1)[C@@H](CO)N(Cc1ccc(F)cc1)CC31CCN(CC2CC2)CC1	-4.297
O=C(c1ccccc1F)N1CC2(C1)[C@H](c1ccccc1)[C@H](CO)N2CC1CCCC1	-7.226
Fc1ccc(-c2ccc(C3[C@@H]4CN(Cc5nccs5)C[C@H]3N4)cc2)cc1 (some centres unmarked)	-1.121
COc1ccc2c3c([nH]c2c1)[C@H](CO)N(Cc1ccc(F)cc1)CC31CCN(Cc2ccccn2)CC1	-3.702
CC(C)CC#Cc1ccc([C@H]2[C@H](CO)N3C(=O)CN(C(=O)Nc4ccc(F)cc4)C[C@@H]23)cc1	-9.41
O=C(C[C@H]1CC[C@H]2[C@@H](COC[C@@H](O)CN2Cc2ccc(Oc3ccccc3)cc2)O1)N1CCOCC1	-12.08
O=S(=O)(c1ccccc1)N1CCCCN2[C@H](CO)[C@H](c3ccc(-c4ccccc4)cc3)[C@H]2C1	-18.53
OC[C@H]1[C@@H](c2ccc(-c3ccc(F)cc3)cc2)[C@@H]2CN(CCC(F)(F)F)CCCCN12	-21.61
N#C[C@@H]1[C@@H](c2ccccc2-c2ccccc2)[C@@H](CO)N1C(=O)NC1CCCC1	-15.31
O=C(C[C@@H]1CC[C@@H]2[C@H](COC[C@H](O)CN2CCC(F)(F)F)O1)NCc1ccc(Oc2ccccc2)cc1	-19.69
COc1cccc(CN2CCCCN3[C@@H](CO)[C@H](c4ccc(C#Cc5cccnc5)cc4)[C@@H]3C2)c1	-8.161
COc1ccc(-c2ccc3c(c2)[C@@H]2[C@@H](CCN2C(=O)c2cccc(F)c2)[C@@H](CO)N3)cc1	6.668
N#Cc1ccc(-c2ccc3c(c2)[C@H]2[C@H](CCN2S(=O)(=O)c2ccccc2F)[C@H](CO)N3)cc1	4.625
CN(C)CCCNC(=O)[C@H]1[C@H](CO)[C@H]2Cn3c(ccc(C4=CCCC4)c3=O)[C@H]2N1CCC(F)(F)F	-8.06
CC(C)NC(=O)N1CCCCN2[C@H](CO)[C@H](c3ccc(C#Cc4ccccc4)cc3)[C@H]2C1	-10.35
O=C(C1CCCCC1)N1CC2(C1)[C@H](c1ccccc1)[C@@H](CO)N2CCC(F)(F)F	-10.96
Cc1cccc(S(=O)(=O)N(C)C[C@@H]2OCc3ccccc3-c3c(n(C)c4ccccc34)C(=O)N([C@H](C)CO)C[C@@H]2C)c1	6.711
OC[C@@H]1[C@H](c2ccc(C#Cc3ccccc3F)cc2)[C@H]2CN(Cc3cncnc3)CCCCN12	-12.7
COc1ccc2c3c([nH]c2c1)[C@@H](CO)N(C(=O)c1ccccc1)CC31CCN(C(=O)Nc2cccc(F)c2)CC1	-15.07
Cc1ccccc1-c1ccc(C2[C@@H]3CN(C(=O)Nc4cccc(F)c4)C[C@H]2N3)cc1 (some centres unmarked)	-8.183
COc1ccccc1NC(=O)N1C[C@@H]2N[C@H](C1)C2c1ccc(-c2cccc(C#N)c2)cc1 (some centres unmarked)	-21.05
C[C@H](CO)N1C[C@H](C)[C@H](CN(C)Cc2cccc(C(F)(F)F)c2)OCc2cnnn2CCCC1=O	-5.608
O=C(Cc1ccccc1)N1CC[C@H]2[C@H](CO)Nc3ccc(C4=CCCCC4)cc3[C@H]21	6.138
COc1ccc(NC(=O)N2CCCCN3[C@H](CO)[C@@H](c4ccc(C5=CCCCC5)cc4)[C@H]3C2)cc1	21.55
CN1c2ccc(C#Cc3cccnc3)cc2[C@H]2[C@H](CCN2S(=O)(=O)c2cccc(F)c2)[C@H]1CO	-10.24
O=C(Nc1ccccc1F)N1CCCCN2[C@H](CO)[C@H](c3ccc(/C=C/c4ccccc4)cc3)[C@@H]2C1	-12.55
COc1ccc(C#Cc2ccc([C@@H]3[C@H](CO)N4CCCCN(C(=O)Nc5ccccc5)C[C@@H]34)cc2)cc1	2.807
CCCC#Cc1ccc([C@@H]2[C@H](CO)N3CCCCN(Cc4cccnc4)C[C@@H]23)cc1	-10.76
O=C(Nc1cccc(F)c1)N1CCCCN2[C@H](CO)[C@@H](c3ccc(C#Cc4cccnc4)cc3)[C@H]2C1	-5.452
COc1cccc(S(=O)(=O)N(C)C[C@@H]2OCc3ccccc3-c3ccccc3C(=O)N([C@@H](C)CO)C[C@@H]2C)c1	-7.279
C[C@H]1CN([C@@H](C)CO)C(=O)c2ccccc2-c2ccccc2CO[C@H]1CN(C)S(=O)(=O)c1ccc(C(F)(F)F)cc1	-12.74
C[C@H]1CN([C@@H](C)CO)C(=O)c2c(c3ccccc3n2C)-c2ccccc2CO[C@@H]1CN(C)S(=O)(=O)c1cccc(C#N)c1	-14.15
CO[C@@H]1CN(C)C(=O)c2cc(NS(=O)(=O)c3cn(C)cn3)ccc2OC[C@@H](C)N(Cc2cccc(C(F)(F)F)c2)C[C@H]1C	-8.004
N#C[C@H]1[C@@H](c2ccccc2C2=CCCCC2)[C@H](CO)N1C(=O)Cc1ccncc1	-13.1
C/C=C/c1ccc(C2[C@@H]3CN(S(=O)(=O)c4cccc(OC)c4)C[C@H]2N3)cc1 (some centres unmarked)	-7.442
OC[C@@H]1Nc2ccc(C#Cc3cccc(F)c3)cc2[C@@H]2NCC[C@H]12	-22.7

The last 4 entries again:

{"smiles": "CO[C@@H]1CN(C)C(=O)c2cc(NS(=O)(=O)c3cn(C)cn3)ccc2OC[C@@H](C)N(Cc2cccc(C(F)(F)F)c2)C[C@H]1C", "Gaussia minus Italica difference (%)": "-8.004"}
{"smiles": "N#C[C@H]1[C@@H](c2ccccc2C2=CCCCC2)[C@H](CO)N1C(=O)Cc1ccncc1", "Gaussia minus Italica difference (%)": "-13.1"}
{"smiles": "C/C=C/c1ccc(C2[C@@H]3CN(S(=O)(=O)c4cccc(OC)c4)C[C@H]2N3)cc1", "stereo": "some centres unmarked", "Gaussia minus Italica difference (%)": "-7.442"}
{"smiles": "OC[C@@H]1Nc2ccc(C#Cc3cccc(F)c3)cc2[C@@H]2NCC[C@H]12", "Gaussia minus Italica difference (%)": "-22.7"}